Experimental data as given in PubChem BioAssay AID493014 (National Center for Advancing Translational Sciences (NCATS), 2011).
The campaign covered roughly 340,000 compounds. About 170 (0.05%) were called active. Inconclusive means that the source gave no clear call. Such entries were picked first, then a sample of the others. Calls come from the whole dose curve; as a rule, active = well fitted inhibition curve with a large enough effect in the signal ratio, with a control signal flat (not every such curve was filed as active); inconclusive = small, poorly fitted or top-dose-only effect, or effect the other way, or a change in a side signal; inactive = flat fitted curve, though single readings scatter; the % refers to the signal ratio. A potency beside an inconclusive call is a rough fit, not a confirmed value.
Potency is the fitted concentration of half-maximal effect.

Assay: qHTS Assay to Find Inhibitors of Chronic Active B-Cell Receptor Signaling;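 for activity change, negative = inhibition: plate controls were basal doxycycline-induced cells for no effect and cells given 10 µM MG132 for full effect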
Details: ABC-DLBCL IkBa-CBG/CBR reporter, luminescence ratio (green luciferase fused to IkBa over red control in TMD8 lymphoma cells), 4 h; activity change, negative = inhibition: at 46.1 µM (top of the series)
Procedure, shortened: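 Compounds up to 46 uM were incubated four hours with TMD8 cells whose green CBG68 luciferase is fused to IkappaBalpha; red CBR luminescence normalised the signal, and concentration-effect curves were fitted to fusion, red and ratio data.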
For CCOc1cc(/C=C2\C(=O)ON=C2c2ccccc2)cc(Br)c1O, the “activity change, negative = inhibition” value was inactive: 5.72%. In the case of COc1ccc(-c2csc3ncnc(Oc4cccc5ccc(C)nc45)c23)cc1, the activity change, negative = inhibition is reported as inconclusive: 25.6%. With Cc1cccc(Nc2nc(N3CCOCC3)nc(N3CCOCC3)n2)c1 the Potency was inconclusive: 5.01 µM [falling, partial curve]. With CC1CCCCC1NC(=O)c1ccc(S(=O)(=O)NCc2ccco2)cc1 (configuration not stated) the activity change, negative = inhibition was inconclusive: -2.65%. For CCS(=O)(=O)c1ccc2oc(Nc3ccccc3Cl)nc2c1, the activity change, negative = inhibition was inconclusive: -7.67%. With O=C1NC(c2ccccc2)=C(c2ccc3ccccc3n2)C(c2ccccc2)N1 (configuration not stated) the activity change, negative = inhibition was inconclusive: 1.62%. For COc1ccccc1OCCCCN1CCN(C(c2ccccc2)c2ccccc2)CC1, the activity change, negative = inhibition was inconclusive: -0.361%. For O=C(Nc1nccs1)c1ccc(Br)s1, the activity change, negative = inhibition was inconclusive: 1.86%. In the case of CC(C(=O)Nc1ccccc1-c1ccccc1)N1CCCCC1 (configuration not stated), the Potency is reported as inconclusive: 20.6 µM [falling, partial curve]. With Cc1ccc(Nc2nc(C)nc3c2oc2ccccc23)cc1 the activity change, negative = inhibition was inconclusive: 11.6%. For O=C(CCCCn1c(=O)[nH]c2ccccc2c1=O)N1CCN(c2cccc(C(F)(F)F)c2)CC1, the activity change, negative = inhibition was inconclusive: -9.33%. With Cn1c(=N)n(CC(=O)c2ccc(F)cc2)c2ccccc21 the Potency was inconclusive: 31.6 µM [falling, single point]. For C=CCCC1(C)C(=O)N(c2ccccc2)c2ccccc21 (configuration not stated), the “activity change, negative = inhibition” value was inactive: 1.35%. For Cc1ccc(Cl)cc1N1CCN(C(=O)Cc2cn(C)c3ccccc23)CC1, the Potency was inconclusive: 29.1 µM [falling, single point]. In the case of C/C(Cn1nc([N+](=O)[O-])cc1C)=N\NC(=O)c1ccc(O)cc1O, the Potency is reported as inconclusive: 12.6 µM [falling, partial curve]. In the case of CCc1n[nH]c2c1/C(=N\O)CC(C)(C)C2, the activity change, negative = inhibition is reported as inconclusive: -0.948%. With COc1cccc2sc(NC(=O)CS(=O)(=O)c3ccc(C)cc3)nc12 the activity change, negative = inhibition was inconclusive: -15.2%. In the case of COc1ccc(/C=C2\NC(=O)C(C=NCc3ccccc3)=C2O)cc1, the “activity change, negative = inhibition” value is reported as inactive: -0.241%. In the case of Cc1ccccc1NC(=O)C(=O)NCc1ccccn1, the activity change, negative = inhibition is reported as inconclusive: -11.4%. In the case of CCCCN(CC)C(=O)CSc1nc2n[nH]c(C)c2c(=N)n1-c1cccc(C)c1, the Potency is reported as inconclusive: 6.31 µM [falling, single point] and the activity change, negative = inhibition is reported as inconclusive: 5.01%. For O=C(CSc1cccc(C(F)(F)F)c1)Nc1cc(S(=O)(=O)N2CCCC2)ccc1Cl, the activity change, negative = inhibition was inconclusive: -2.78%. In the case of COc1ccccc1NC(=O)c1ccc2nc(C)sc2c1, the Potency is reported as inconclusive: 15.8 µM [falling, partial curve, poor fit]. For N/C(=N\OC(=O)c1ccco1)c1ccc(Br)cc1, the activity change, negative = inhibition was inconclusive: 5.99%. In the case of Cc1ccccc1C(=O)NNC(=O)Nc1ccccc1, the Potency is reported as inconclusive: 20 µM [falling, single point]. In the case of CC(C)N(CCn1c(=S)[nH]c2ccccc2c1=O)C(C)C, the Potency is reported as inconclusive: 4.61 µM [falling, partial curve, poor fit]. For CNC(=S)N/N=C/c1ccc(N(C)C)cc1, the “activity change, negative = inhibition” value was inactive: -4.31%. For CC(=O)c1cnc(Nc2ccccc2)s1, the “activity change, negative = inhibition” value was inactive: 4.33%. With Cc1ccc(S(=O)(=O)N2CCN(C)CC2)c(C)c1 the Potency was inconclusive: 0.651 µM [falling, full curve, poor fit]. For COc1ccc(OC)c(S(=O)(=O)N(C)CC(=O)Nc2cc(Cl)ccc2OC)c1, the Potency was inconclusive: 0.184 µM [falling, full curve, poor fit]. In the case of Cc1cc(O)c(N)c(C)c1Cl, the Potency is reported as inconclusive: 11.2 µM [falling, partial curve, poor fit]. For OC(C#CCN1CCOCC1)c1cccs1 (configuration not stated), the activity change, negative = inhibition was inconclusive: -46.9%. In the case of CCOC(=O)c1nc(Nc2ccc(C(=O)O)cc2)c2ccccc2n1, the activity change, negative = inhibition is reported as inconclusive: -9.3%. With COc1cc(C2C3=C(CCCC3=O)Nc3ccc4ncccc4c32)ccc1O (configuration not stated) the Potency was inconclusive: 35.5 µM [falling, single point]. For O=C(Nc1ccc(Cl)cc1)Nc1ccccc1C(=O)NCc1ccco1, the Potency was inconclusive: 5.17 µM [falling, partial curve, poor fit]. For CCN1C(=O)[C@H]2[C@@H](c3ccc(-c4cccc(Cl)c4)c(OC)c3)N[C@@](C)(C(=O)OC)[C@H]2C1=O, the activity change, negative = inhibition was inconclusive: 10.4%. For C=C[C@H](CC(C)C)N(Cc1ccccc1)S(=O)(=O)N(Cc1ccc(OC)cc1)[C@H](C=C)CC(C)C, the “activity change, negative = inhibition” value was inactive: -1.22%. In the case of Cc1nn(C)c(C)c1/C=C/C(=O)c1ccccc1, the Potency is reported as inconclusive: 29.1 µM [falling, single point]. For COc1ccc(-c2nc(CSCC(=O)NC3CCCc4ccccc43)c(C)o2)cc1 (configuration not stated), the “activity change, negative = inhibition” value was inactive: 2.43%. For Cc1cccc(CC(=O)N2CCC(n3nccc3NC(=O)C3CC3)CC2)c1, the “activity change, negative = inhibition” value was inactive: 6.52%. For COC(=O)c1cc(CSc2nc3ccccc3c(=O)n2C)oc1C, the “activity change, negative = inhibition” value was inactive: 2.1%. With COC(=O)c1nnn(-c2ccc(F)c(Cl)c2)c1C(=O)OC the “activity change, negative = inhibition” value was inactive: 2.31%. In the case of COc1ccc(NC(=O)C2CCCN(C(=O)Nc3ccc(F)cc3)C2)cc1 (configuration not stated), the activity change, negative = inhibition is reported as inconclusive: 13.9%. For O=C(N/N=C/c1cnc(N2CCOCC2)s1)c1ccccc1, the Potency was inconclusive: 15.8 µM [falling, single point]. In the case of O=C(COC(=O)CN1C(=O)COc2ccccc21)NCc1ccc(F)cc1, the activity change, negative = inhibition is reported as inconclusive: -7.24%. In the case of C/C(=N\NC(=O)c1cc(-c2cccc(OC(C)C)c2)nc2ccccc12)c1cccnc1, the “activity change, negative = inhibition” value is reported as inactive: 8.11%. In the case of COc1ccc(S(=O)(=O)N2CCc3ccccc32)cc1C(=O)OCc1c(C)noc1C, the activity change, negative = inhibition is reported as inconclusive: -8.55%. For CN(CC(=O)NCc1ccc(F)cc1)CC(=O)Nc1ccc(Cl)c(C(F)(F)F)c1, the Potency was inconclusive: 7.94 µM [falling, partial curve, poor fit]. In the case of COc1ccc([N+](=O)[O-])cc1NC(=S)NC(=O)C(C)(C)C, the “activity change, negative = inhibition” value is reported as inactive: -1.01%. For COC(=O)c1cc(-c2ccc(C)o2)nc2ccccc12, the “activity change, negative = inhibition” value was inactive: 5.8%. For Cc1ccccc1NC(=O)c1nnn(-c2ccc3c(c2)OCCO3)c1N, the Potency was inconclusive: 22.4 µM [falling, partial curve]. With CCC(C)Oc1cc(-c2ccnc(Nc3cccc(Cl)c3)n2)ccn1 (configuration not stated) the activity change, negative = inhibition was inconclusive: 21%. In the case of O=C1CSc2ccc(S(=O)(=O)NCc3ccc(Cl)cc3)cc2N1, the activity change, negative = inhibition is reported as inconclusive: -5.52%. With N#C/C(=C(/O)COC(=O)c1ccc(O)cc1)c1nc2ccccc2[nH]1 the Potency was inconclusive: 28.2 µM [falling, single point]. For CSc1ccc(CCNC(=O)c2cccc3c2C(=O)N(C2CCCCC2)C3)cc1, the Potency was inconclusive: 11.2 µM [rising, partial curve, poor fit]. In the case of CN(C)S(=O)(=O)c1ccc(-c2csc(N/N=C/c3ccco3)n2)cc1, the activity change, negative = inhibition is reported as inconclusive: -25.4%. With Cc1noc(C)c1COC(=O)c1cccc(N(C)C)c1 the activity change, negative = inhibition was inconclusive: -20.4%. In the case of CS(=O)(=O)Nc1ccccc1C(=O)NCCSc1ccccc1, the activity change, negative = inhibition is reported as inconclusive: 6.38%. For Brc1cccc(CNc2nc3ccccc3n2CCN2CCCCC2)c1, the activity change, negative = inhibition was inconclusive: -14.1%. With NNC(=S)NC1CCCCC1 the Potency was inconclusive: 35.5 µM [falling, single point]. With CCOC(=O)c1c(NC(=O)COC(=O)CCOc2ccccc2C)sc(C(=O)NC)c1C the activity change, negative = inhibition was inconclusive: 5.59%. In the case of O=C(Nc1cccc(-c2nc3ccccc3[nH]2)c1)c1ccccn1, the activity change, negative = inhibition is reported as inconclusive: -3.33%. With CNc1nc(Cl)c(SC)c(NCc2ccc(F)cc2)n1 the activity change, negative = inhibition was inconclusive: 3.51%. For CC(NC(=O)c1ccc(OC2CCN(Cc3ccccn3)CC2)cc1)c1nccs1 (configuration not stated), the “activity change, negative = inhibition” value was inactive: -10.5%. In the case of CC1(C)CC(=O)C(N=Nc2cc(S(=O)(=O)N3CCOCC3)ccc2Cl)=C(O)C1, the activity change, negative = inhibition is reported as inconclusive: 19.5%. For O=C(O)c1cc2c(cn1)[nH]c1ccccc12, the activity change, negative = inhibition was inconclusive: -1.67%. With COc1ccccc1CCNC(=O)c1nccnc1C(=O)O the “activity change, negative = inhibition” value was inactive: -0.54%. For CC1=NN(Cc2ccccc2)C(=O)/C1=C\c1ccc(N(C)C)cc1, the activity change, negative = inhibition was inconclusive: 4.49%. With CCc1ccc2nc(NC(=O)Cn3cnc4ccccc4c3=O)sc2c1 the activity change, negative = inhibition was inconclusive: 11.1%. In the case of COC(c1ccccc1)c1nnc(CCC(=O)N(C)CCOc2ccccc2)o1 (configuration not stated), the activity change, negative = inhibition is reported as inconclusive: 7.74%. In the case of CN(CCCCN1CCOCC1)Cc1nc(-c2ccc3c(c2)OCO3)no1, the Potency is reported as inconclusive: 0.891 µM [falling, full curve, poor fit]. With Cc1cccc(-c2noc(CCCC(=O)Nc3ccc(C(N)=O)cc3)n2)c1 the Potency was inconclusive: 0.651 µM [rising, full curve]. For Cc1ccccc1CN1C(=O)c2ccccc2Sc2ccc(C(=O)NC3CCCCC3)cc21, the “activity change, negative = inhibition” value was inactive: 0.549%. In the case of O=C(NCCCn1ccnc1)c1cc(-c2ccc(Br)cc2)on1, the activity change, negative = inhibition is reported as inconclusive: -0.126%. In the case of Cc1onc(-c2c(F)cccc2Cl)c1C(=O)c1ccccc1, the “activity change, negative = inhibition” value is reported as inactive: 1.01%. For Cc1ccc(C(=O)NCc2ccccn2)o1, the activity change, negative = inhibition was inconclusive: 3.79%. With Cc1ccc(NC(=O)c2cccc(S(=O)(=O)N(C)c3ccccc3)c2)cc1S(=O)(=O)N1CCOCC1 the activity change, negative = inhibition was inconclusive: -0.0461%. In the case of Cc1c(Cl)cccc1NC(=S)N1CCN(c2ccccn2)CC1, the activity change, negative = inhibition is reported as inconclusive: 5.97%. In the case of COc1nnc(-c2ccc(C)c(S(N)(=O)=O)c2)c2ccccc12, the activity change, negative = inhibition is reported as inconclusive: -0.639%. For Cn1c(O)c(C2=c3ccccc3=NC2=O)sc1=Nc1ccc(Cl)cc1, the Potency was inconclusive: 2.06 µM [falling, full curve]. With COc1ccc(-c2c3c(=O)n(C)c(=O)n(C)c3cn2-c2ccc(O)cc2)cc1 the Potency was inconclusive: 20 µM [falling, partial curve, poor fit]. In the case of CC(=O)Nc1sc2c(c1C#N)CCC(C)C2 (configuration not stated), the activity change, negative = inhibition is reported as inconclusive: -0.307%.
